Reference: PMC7618116
These are yes or no findings as the source states them, for the method shown. Binding seen in cells or lysates may run through a third protein. Some entries that bind do so weakly or less than the wild type.

Sequences of proteins named here, by UniProt entry; tags and fusion partners are left off. Residues count along the entry.
UniProt Q61037: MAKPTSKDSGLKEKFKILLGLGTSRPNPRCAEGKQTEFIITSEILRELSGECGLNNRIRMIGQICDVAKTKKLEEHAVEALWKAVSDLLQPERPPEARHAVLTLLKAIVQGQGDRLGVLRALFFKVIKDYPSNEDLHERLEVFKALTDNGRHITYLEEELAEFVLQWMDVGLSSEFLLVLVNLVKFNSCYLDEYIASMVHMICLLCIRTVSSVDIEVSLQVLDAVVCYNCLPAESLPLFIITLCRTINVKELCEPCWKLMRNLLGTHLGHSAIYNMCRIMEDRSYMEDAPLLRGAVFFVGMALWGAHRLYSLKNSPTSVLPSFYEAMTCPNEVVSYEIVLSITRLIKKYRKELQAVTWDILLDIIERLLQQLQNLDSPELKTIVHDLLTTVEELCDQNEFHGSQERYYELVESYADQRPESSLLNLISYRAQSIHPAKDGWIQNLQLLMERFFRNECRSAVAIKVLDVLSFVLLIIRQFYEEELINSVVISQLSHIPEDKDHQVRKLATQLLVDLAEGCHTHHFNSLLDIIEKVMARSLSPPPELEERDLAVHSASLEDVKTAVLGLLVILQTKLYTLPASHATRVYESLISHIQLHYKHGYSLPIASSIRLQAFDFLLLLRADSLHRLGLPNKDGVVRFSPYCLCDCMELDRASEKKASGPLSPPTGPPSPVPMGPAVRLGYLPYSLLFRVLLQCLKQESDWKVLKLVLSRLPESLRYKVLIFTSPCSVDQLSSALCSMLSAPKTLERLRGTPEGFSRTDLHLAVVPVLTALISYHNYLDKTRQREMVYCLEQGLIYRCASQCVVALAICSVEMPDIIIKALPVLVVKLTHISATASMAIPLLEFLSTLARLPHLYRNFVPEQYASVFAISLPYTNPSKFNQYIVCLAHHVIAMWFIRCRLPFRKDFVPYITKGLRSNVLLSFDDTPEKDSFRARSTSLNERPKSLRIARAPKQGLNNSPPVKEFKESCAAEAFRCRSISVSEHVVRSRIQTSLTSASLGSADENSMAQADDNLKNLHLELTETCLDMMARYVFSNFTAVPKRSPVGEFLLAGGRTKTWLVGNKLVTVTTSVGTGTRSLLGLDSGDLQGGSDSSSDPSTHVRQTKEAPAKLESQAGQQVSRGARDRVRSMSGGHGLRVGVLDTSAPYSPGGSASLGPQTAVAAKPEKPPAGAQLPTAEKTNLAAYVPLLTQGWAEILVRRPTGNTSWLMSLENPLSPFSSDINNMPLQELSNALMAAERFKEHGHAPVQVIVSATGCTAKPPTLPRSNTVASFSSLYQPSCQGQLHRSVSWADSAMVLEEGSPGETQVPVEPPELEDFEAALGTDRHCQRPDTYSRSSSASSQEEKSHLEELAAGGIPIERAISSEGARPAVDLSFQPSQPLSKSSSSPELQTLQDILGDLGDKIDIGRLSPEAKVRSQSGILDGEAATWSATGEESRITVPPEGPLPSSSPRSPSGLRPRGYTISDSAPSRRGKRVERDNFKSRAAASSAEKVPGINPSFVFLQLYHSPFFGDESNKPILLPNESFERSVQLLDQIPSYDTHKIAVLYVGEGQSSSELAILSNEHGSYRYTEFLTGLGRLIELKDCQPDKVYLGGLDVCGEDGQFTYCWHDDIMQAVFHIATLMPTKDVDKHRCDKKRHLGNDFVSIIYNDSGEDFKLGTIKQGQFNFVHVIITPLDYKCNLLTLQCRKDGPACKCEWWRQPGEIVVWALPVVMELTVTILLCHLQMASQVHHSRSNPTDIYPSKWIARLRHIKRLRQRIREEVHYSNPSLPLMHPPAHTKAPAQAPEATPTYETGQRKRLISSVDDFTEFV
UniProt Q61527, residues 26-1308: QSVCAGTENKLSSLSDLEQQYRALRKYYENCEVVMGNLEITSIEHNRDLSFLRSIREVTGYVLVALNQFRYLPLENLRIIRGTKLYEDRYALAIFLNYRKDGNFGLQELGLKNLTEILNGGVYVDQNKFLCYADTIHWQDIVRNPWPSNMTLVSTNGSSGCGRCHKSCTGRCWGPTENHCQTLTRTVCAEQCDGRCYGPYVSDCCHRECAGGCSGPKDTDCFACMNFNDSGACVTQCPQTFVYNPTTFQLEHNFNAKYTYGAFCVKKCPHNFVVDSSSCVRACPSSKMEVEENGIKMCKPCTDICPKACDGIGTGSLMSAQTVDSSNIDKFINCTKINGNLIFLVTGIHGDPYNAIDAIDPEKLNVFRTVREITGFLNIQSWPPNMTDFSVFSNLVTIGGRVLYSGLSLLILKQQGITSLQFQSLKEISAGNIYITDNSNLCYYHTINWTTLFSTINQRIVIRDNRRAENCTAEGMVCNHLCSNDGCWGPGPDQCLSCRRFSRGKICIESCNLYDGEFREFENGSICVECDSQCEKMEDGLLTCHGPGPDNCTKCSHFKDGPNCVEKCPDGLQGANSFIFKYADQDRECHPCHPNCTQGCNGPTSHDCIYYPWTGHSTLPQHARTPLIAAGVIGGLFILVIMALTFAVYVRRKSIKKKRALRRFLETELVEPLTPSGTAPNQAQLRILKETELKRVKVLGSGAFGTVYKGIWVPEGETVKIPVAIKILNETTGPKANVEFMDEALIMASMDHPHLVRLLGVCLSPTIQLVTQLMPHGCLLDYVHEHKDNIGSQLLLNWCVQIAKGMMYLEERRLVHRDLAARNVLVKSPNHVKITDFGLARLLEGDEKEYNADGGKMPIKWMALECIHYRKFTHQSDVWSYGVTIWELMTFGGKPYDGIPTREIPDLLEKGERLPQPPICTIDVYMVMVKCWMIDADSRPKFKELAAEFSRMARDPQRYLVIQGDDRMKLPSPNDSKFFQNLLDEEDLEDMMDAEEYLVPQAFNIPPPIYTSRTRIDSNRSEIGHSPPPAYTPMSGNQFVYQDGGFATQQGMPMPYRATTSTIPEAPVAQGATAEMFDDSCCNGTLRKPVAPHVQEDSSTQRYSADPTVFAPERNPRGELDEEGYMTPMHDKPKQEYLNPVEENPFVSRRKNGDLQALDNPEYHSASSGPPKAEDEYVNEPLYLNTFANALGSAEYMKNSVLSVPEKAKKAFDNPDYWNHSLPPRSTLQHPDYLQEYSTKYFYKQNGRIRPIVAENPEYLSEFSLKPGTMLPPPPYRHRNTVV

Biological target: TSC subunit 2 (Tsc2) (mouse (endogenous in cortical synaptosomes)) (UniProt Q61037)
Assay: co-IP; cortical synaptosomes from P15 C57BL/6 mice in 20 mM Tris-HCl pH 8, 120 mM NaCl, 1% NP40, 1% glycerol; overnight at 4 °C with rabbit anti-Tsc2, rabbit anti-ErbB4 or rabbit IgG isotype control; Dynabeads Protein G; six washes; Western blot

## Erb-B2 receptor tyrosine kinase 4 (ErbB4) (from UniProt Q61527 26-1308)
  binding: binds
